This passage reports binding results from PMC4585786.

Amino acid sequences for entries named in this document (tags omitted). Residues count along the entry.
UniProt Q04206: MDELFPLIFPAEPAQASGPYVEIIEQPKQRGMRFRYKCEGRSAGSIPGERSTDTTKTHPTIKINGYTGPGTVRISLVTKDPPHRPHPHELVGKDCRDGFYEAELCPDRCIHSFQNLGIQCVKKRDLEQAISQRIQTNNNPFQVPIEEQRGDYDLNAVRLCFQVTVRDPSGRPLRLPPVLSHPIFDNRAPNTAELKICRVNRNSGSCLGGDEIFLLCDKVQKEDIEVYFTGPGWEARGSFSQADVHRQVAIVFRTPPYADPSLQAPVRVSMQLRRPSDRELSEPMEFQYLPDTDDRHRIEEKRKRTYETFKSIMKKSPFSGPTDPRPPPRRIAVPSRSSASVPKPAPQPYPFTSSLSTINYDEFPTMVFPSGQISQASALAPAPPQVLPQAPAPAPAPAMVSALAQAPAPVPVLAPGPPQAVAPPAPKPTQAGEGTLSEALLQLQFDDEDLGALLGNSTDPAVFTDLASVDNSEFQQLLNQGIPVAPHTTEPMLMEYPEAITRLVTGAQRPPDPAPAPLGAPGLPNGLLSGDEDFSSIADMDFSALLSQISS
UniProt P19838, residues 1-433: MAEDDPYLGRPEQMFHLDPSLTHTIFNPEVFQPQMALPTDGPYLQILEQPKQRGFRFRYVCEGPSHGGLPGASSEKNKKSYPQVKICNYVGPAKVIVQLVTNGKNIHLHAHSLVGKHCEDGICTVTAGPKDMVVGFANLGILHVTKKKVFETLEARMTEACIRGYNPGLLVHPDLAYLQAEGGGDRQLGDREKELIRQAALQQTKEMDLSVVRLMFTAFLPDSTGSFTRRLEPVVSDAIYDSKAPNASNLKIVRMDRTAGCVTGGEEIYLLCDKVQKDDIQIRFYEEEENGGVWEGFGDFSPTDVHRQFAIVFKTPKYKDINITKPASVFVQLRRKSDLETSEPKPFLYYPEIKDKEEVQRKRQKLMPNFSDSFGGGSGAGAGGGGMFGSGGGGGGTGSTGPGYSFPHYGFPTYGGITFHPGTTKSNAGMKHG

No constants are given. Whether binding was seen depends on the method and setting. In cells and extracts the contact can be indirect. Some binding calls cover weakened binding; strength is not graded here.

The experiment addresses p65-FLAG (full-length p65) (UniProt Q04206). Briefly: co-IP.

Take p50-Myc (from UniProt P19838): the binding entry is on record as “binds”.
